Test results taken from the supplement of paper PMC8728848.
The list shows a part of the results.

Tests used:
Experiment in all cases: glycan array binding signal (z-score within array); higher = stronger binding
Conditions in all cases: glycan notation: IUPAC condensed, linker removed
Gal(a1-3)Gal(b1-4)GlcNAc = target: Gal(a1-3)Gal(b1-4)GlcNAc
Outline: (§1)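 Negative Z-scores can be read as non-binding. The Z-score is calculated within each array and then averaged across arrays of one protein sequence at different concentrations or buffers and across linkers. Arrays, 3228 in all, were curated from the Consortium for Functional Glycomics database and kept only where the protein sequence was available.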

[1] = target: Gal(a1-3)Gal(b1-4)GlcNAc(b1-2)Man
Outline: as §1

[2] = target: Gal(a1-3)Gal(b1-4)GlcNAc(b1-2)Man(a1-3)[Gal(a1-3)Gal(b1-4)GlcNAc(b1-2)Man(a1-6)]Man(b1-4)GlcNAc(b1-4)GlcNAc
Outline: as §1

[3] = target: Gal(a1-3)Gal(b1-4)GlcNAc(b1-3)GalNAc
Outline: as §1

[4] = target: Gal(a1-3)Gal(b1-4)GlcNAc(b1-6)GalNAc
Outline: as §1

[5] = target: Gal(a1-3)Gal(b1-4)[Fuc(a1-3)]GlcNAc
Outline: as §1

[6] = target: Gal(a1-3)Gal(b1-4)[Fuc(a1-3)]GlcNAc(b1-2)Man(a1-3)[Gal(a1-3)Gal(b1-4)[Fuc(a1-3)]GlcNAc(b1-2)Man(a1-6)]Man(b1-4)GlcNAc(b1-4)GlcNAc
Outline: as §1

Gal(a1-3)GalNAc = target: Gal(a1-3)GalNAc
Outline: as §1

[7] = target: Gal(a1-3)[Gal(a1-4)]Gal(b1-4)GlcNAc
Outline: as §1

[8] = target: Gal(a1-4)Gal(b1-3)GlcNAc(b1-2)Man(a1-3)[Gal(a1-4)Gal(b1-3)GlcNAc(b1-2)Man(a1-6)]Man(b1-4)GlcNAc(b1-4)GlcNAc
Outline: as §1

Gal(a1-4)Gal(b1-4)Glc = target: Gal(a1-4)Gal(b1-4)Glc
Outline: as §1

Gal(a1-4)Gal(b1-4)GlcNAc = target: Gal(a1-4)Gal(b1-4)GlcNAc
Outline: as §1

[9] = target: Gal(a1-4)Gal(b1-4)GlcNAc(b1-2)Man(a1-3)[Gal(a1-4)Gal(b1-4)GlcNAc(b1-2)Man(a1-6)]Man(b1-4)GlcNAc(b1-4)GlcNAc
Outline: as §1

[10] = target: Gal(a1-4)Gal(b1-4)GlcNAc(b1-3)Gal(b1-4)Glc
Outline: as §1

Gal(a1-4)GlcNAc = target: Gal(a1-4)GlcNAc
Outline: as §1

Gal(a1-6)Glc = target: Gal(a1-6)Glc
Outline: as §1

Gal(b1-2)Gal = target: Gal(b1-2)Gal
Outline: as §1

Gal(b1-3)Gal = target: Gal(b1-3)Gal
Outline: as §1

Gal(b1-3)Gal(b1-4)GlcNAc = target: Gal(b1-3)Gal(b1-4)GlcNAc
Outline: as §1

Gal(b1-3)GalNAc = target: Gal(b1-3)GalNAc
Outline: as §1

[11] = target: Gal(b1-3)GalNAc(a1-3)[Fuc(a1-2)]Gal(b1-4)Glc
Outline: as §1

[12] = target: Gal(b1-3)GalNAc(a1-3)[Fuc(a1-2)]Gal(b1-4)GlcNAc
Outline: as §1

Gal(b1-3)GalNAc(b1-3)Gal = target: Gal(b1-3)GalNAc(b1-3)Gal
Outline: as §1

[13] = target: Gal(b1-3)GalNAc(b1-3)Gal(a1-4)Gal(b1-4)Glc
Outline: as §1

[14] = target: Gal(b1-3)GalNAc(b1-4)Gal(b1-4)Glc
Outline: as §1

[15] = target: Gal(b1-3)GalNAc(b1-4)[Neu5Ac(a2-3)]Gal(b1-4)Glc
Outline: as §1

Gal(b1-3)GlcNAc = target: Gal(b1-3)GlcNAc
Outline: as §1

[16] = target: Gal(b1-3)GlcNAc(a1-3)Gal(b1-4)GlcNAc
Outline: as §1

[17] = target: Gal(b1-3)GlcNAc(a1-6)Gal(b1-4)GlcNAc
Outline: as §1

Gal(b1-3)GlcNAc(b1-2)Man = target: Gal(b1-3)GlcNAc(b1-2)Man
Outline: as §1

[18] = target: Gal(b1-3)GlcNAc(b1-2)Man(a1-3)[Gal(b1-3)GlcNAc(b1-2)Man(a1-6)]Man(b1-4)GlcNAc(b1-4)GlcNAc
Outline: as §1

[19] = target: Gal(b1-3)GlcNAc(b1-2)Man(a1-3)[Gal(b1-3)GlcNAc(b1-2)Man(a1-6)]Man(b1-4)GlcNAc(b1-4)[Fuc(a1-6)]GlcNAc
Outline: as §1

[20] = target: Gal(b1-3)GlcNAc(b1-2)Man(a1-3)[GlcNAc(b1-4)][Gal(b1-3)GlcNAc(b1-2)Man(a1-6)]Man(b1-4)GlcNAc(b1-4)GlcNAc
Outline: as §1

[21] = target: Gal(b1-3)GlcNAc(b1-2)[Gal(b1-3)GlcNAc(b1-6)]Man(a1-6)[Gal(b1-3)GlcNAc(b1-2)Man(a1-3)]Man(b1-4)GlcNAc(b1-4)GlcNAc
Outline: as §1

[22] = target: Gal(b1-3)GlcNAc(b1-3)Gal(b1-3)GlcNAc
Outline: as §1

[23] = target: Gal(b1-3)GlcNAc(b1-3)Gal(b1-4)Glc
Outline: as §1

[24] = target: Gal(b1-3)GlcNAc(b1-3)Gal(b1-4)GlcNAc
Outline: as §1

B1: Epa8 (Candida glabrata) (protein)
chain: MGSSHHHHHHSSGLVPRGSHMASSRALSDYPLGCSPLLGTKLTPGLSMELYEYPLDNHGIGPHCWDPAYLNPEYPRTGFESHKLIGTAQNVMSLNFEHRTQDCHVEFSNLPASFNFPDQITLTNFTMLLYGYFKPKESGRYRFHMEADDLLLMNLGAGNAFDCCAHEATRNNLGDYIAYDIWAGTRKDVEVFLEKEVFYPLRLFFNNRDGRAALDFSYYLNGATEPGTDIPELLFSLPDGESCPAYI
glycan array binding signal (z-score) (Gal(a1-3)Gal(b1-4)GlcNAc): -0.245 | glycan array binding signal (z-score) [1]: -0.268 | glycan array binding signal (z-score) [2]: 0.165 | glycan array binding signal (z-score) [3]: -0.155 | glycan array binding signal (z-score) [4]: 1.02 | glycan array binding signal (z-score) [5]: -0.506 | glycan array binding signal (z-score) [6]: 0.943 | glycan array binding signal (z-score) (Gal(a1-3)GalNAc): -0.604 | glycan array binding signal (z-score) [7]: -0.46 | glycan array binding signal (z-score) [8]: 0.332 | glycan array binding signal (z-score) (Gal(a1-4)Gal(b1-4)Glc): -0.101 | glycan array binding signal (z-score) (Gal(a1-4)Gal(b1-4)GlcNAc): 0.119 | glycan array binding signal (z-score) [9]: -0.074 | glycan array binding signal (z-score) [10]: -0.64 | glycan array binding signal (z-score) (Gal(a1-4)GlcNAc): 1.15 | glycan array binding signal (z-score) (Gal(a1-6)Glc): 0.995 | glycan array binding signal (z-score) (Gal(b1-2)Gal): -0.135 | glycan array binding signal (z-score) (Gal(b1-3)Gal): 0.171 | glycan array binding signal (z-score) (Gal(b1-3)Gal(b1-4)GlcNAc): -0.513 | glycan array binding signal (z-score) (Gal(b1-3)GalNAc): -0.049 | glycan array binding signal (z-score) [11]: 0.05 | glycan array binding signal (z-score) [12]: 0.025 | glycan array binding signal (z-score) (Gal(b1-3)GalNAc(b1-3)Gal): -0.026 | glycan array binding signal (z-score) [13]: 0.394 | glycan array binding signal (z-score) [14]: 1.06 | glycan array binding signal (z-score) [15]: 0.023 | glycan array binding signal (z-score) (Gal(b1-3)GlcNAc): -0.441 | glycan array binding signal (z-score) [16]: 1.57 | glycan array binding signal (z-score) [17]: -0.185 | glycan array binding signal (z-score) (Gal(b1-3)GlcNAc(b1-2)Man): 0.055 | glycan array binding signal (z-score) [18]: 0.751 | glycan array binding signal (z-score) [19]: -0.384 | glycan array binding signal (z-score) [20]: 0.501 | glycan array binding signal (z-score) [21]: -0.014 | glycan array binding signal (z-score) [22]: -0.555 | glycan array binding signal (z-score) [23]: -0.437 | glycan array binding signal (z-score) [24]: -0.812
